{"source": "PubChem BioAssay AID652243 | Drosophila RNAi Screening Center – 2013", "screen": "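Fly genes required for human androgen receptor driven transcription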 (primary screen)", "cell system": "Drosophila S2R+ cells", "reagents": "long dsRNA against Drosophila genes", "time to read-out": "72 h (48 h, then 24 h hormone)", "challenge": "synthetic androgen R1881 at 10 nM for 24 h", "measured": "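Firefly light from an androgen-responsive reporter and Renilla control light per well, raw and unnormalised, for each of two replicates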", "direction": "firefly reporter light: higher = more light from androgen-responsive reporter; Renilla control light: higher = more constitutive control signal (cell number, transfection)", "hit rule": "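Hit when the log firefly-to-Renilla ratio dropped or increased by a fixed fold versus the mean of GFP or LacZ controls across duplicate plates; lowering cut given as 1.5 and as 3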", "calls": "active = hit: reporter lowered or raised; inactive = no hit", "note": "The deposit covers about 24,000 reagents; this is a random part of those with a known target gene and a result. Over the whole deposit, 246 (1%) got an active call. 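Plates not normalised; calls are printed but the firefly/Renilla ratio behind them is not deposited; fold cut for lowering reported inconsistently.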 Raw values vary from plate to plate and are shown uncorrected. A number with no mark means an inactive call. Names joined by + are all predicted targets of the reagent. Not stated in the record: the amount of reagent."}
{"gene":"VhaAC45RP (GeneID 318563)","DRSC id":"DRSC15423","firefly reporter light, replicate 1":5.55e5,"firefly reporter light, replicate 2":5.79e5,"Renilla control light, replicate 1":3.38e6,"Renilla control light, replicate 2":4.41e6}
{"gene":"VhaAC45RP (GeneID 318563)","DRSC id":"DRSC26986","firefly reporter light, replicate 1":4.20e5,"firefly reporter light, replicate 2":3.50e5,"Renilla control light, replicate 1":7.64e5,"Renilla control light, replicate 2":6.87e5}
{"gene":"Octbeta3R (GeneID 3885573)","DRSC id":"DRSC15351","firefly reporter light, replicate 1":31121,"firefly reporter light, replicate 2":30165,"Renilla control light, replicate 1":1.00e6,"Renilla control light, replicate 2":1.15e6}
{"gene":"Octbeta3R (GeneID 3885573)","DRSC id":"DRSC16191","firefly reporter light, replicate 1":59642,"firefly reporter light, replicate 2":43073,"Renilla control light, replicate 1":7.46e5,"Renilla control light, replicate 2":1.06e6}
{"gene":"Octbeta3R (GeneID 3885573)","DRSC id":"DRSC21853","firefly reporter light, replicate 1":8.27e5,"firefly reporter light, replicate 2":8.57e5,"Renilla control light, replicate 1":1.40e6,"Renilla control light, replicate 2":1.54e6}
{"gene":"Octbeta3R (GeneID 3885573)","DRSC id":"DRSC21902","firefly reporter light, replicate 1":1.04e5,"firefly reporter light, replicate 2":92199,"Renilla control light, replicate 1":4.41e5,"Renilla control light, replicate 2":7.84e5}
{"gene":"Octbeta3R (GeneID 3885573)","DRSC id":"DRSC22350","firefly reporter light, replicate 1":6.21e5,"firefly reporter light, replicate 2":7.09e5,"Renilla control light, replicate 1":2.59e6,"Renilla control light, replicate 2":2.48e6}
{"gene":"Octbeta3R (GeneID 3885573)","DRSC id":"DRSC24019","firefly reporter light, replicate 1":1.10e6,"firefly reporter light, replicate 2":8.45e5,"Renilla control light, replicate 1":7.67e5,"Renilla control light, replicate 2":7.97e5}
{"gene":"Octbeta3R (GeneID 3885573)","DRSC id":"DRSC25327","firefly reporter light, replicate 1":8.68e5,"firefly reporter light, replicate 2":9.31e5,"Renilla control light, replicate 1":6.36e5,"Renilla control light, replicate 2":7.28e5}
{"gene":"Octbeta3R (GeneID 3885573)","DRSC id":"DRSC26889","firefly reporter light, replicate 1":3.83e5,"firefly reporter light, replicate 2":3.01e5,"Renilla control light, replicate 1":6.39e5,"Renilla control light, replicate 2":4.93e5}
{"gene":"CG3281 (GeneID 41445)","DRSC id":"DRSC15470","firefly reporter light, replicate 1":81418,"firefly reporter light, replicate 2":88717,"Renilla control light, replicate 1":5.69e5,"Renilla control light, replicate 2":8.44e5}
{"gene":"CG3281 (GeneID 41445)","DRSC id":"DRSC28414","firefly reporter light, replicate 1":3.14e5,"firefly reporter light, replicate 2":3.69e5,"Renilla control light, replicate 1":5.36e5,"Renilla control light, replicate 2":9.38e5}
{"gene":"CG42299 + CG42300","DRSC id":"DRSC19680","firefly reporter light, replicate 1":4.44e5,"firefly reporter light, replicate 2":3.56e5,"Renilla control light, replicate 1":2.69e6,"Renilla control light, replicate 2":2.73e6}
{"gene":"CG42299 + CG42300","DRSC id":"DRSC19815","firefly reporter light, replicate 1":2.91e5,"firefly reporter light, replicate 2":3.61e5,"Renilla control light, replicate 1":3.04e6,"Renilla control light, replicate 2":2.83e6}
